One may read the Kd as the equilibrium constant for the complex coming apart.

Binding result and Kd data for 2 sequences are collected here from article PMC5969521, “Actin-related proteins regulate the RSC chromatin remodeler by weakening intramolecular interactions of the Sth1 ATPase” (Communications Biology, 2018).

For at least one entry, the source does not settle the construct or the ends of the probe. Weaker means in comparison with the reference protein, sequence or condition of that experiment. For part of these data: At least one verdict was read from the data and is not stated in words by the source. For part of these data: Where a protein sequence is shown, tags need not be part of it.

Series [1] has as its system Arp7 + Arp9 + Sth1(301-1097). The experiment in a line: fluorescence anisotropy. The note with it: 1 mM ADP, Kd only in figure; Anisotropy: 20 mM HEPES pH 7.5, 50 mM NaCl, 2.5 mM MgCl2, 5% glycerol, 1 mM DTT, 0.1 mg/mL BSA, 1 mM AMPPNP or ADP, 50 nM DNA …; recombinant protein; label: 5'-fluorescein. In general terms: Fluorescence polarisation rises when a labelled molecule tumbles more slowly, as on binding a larger partner.

In series [2] the test system is Rtt102 + Arp7 + Arp9 + Sth1(301-1097). The experiment in a line: fluorescence anisotropy. The settings on record: 1 mM ADP, Kd only in figure; Anisotropy: 20 mM HEPES pH 7.5, 50 mM NaCl, 2.5 mM MgCl2, 5% glycerol, 1 mM DTT, 0.1 mg/mL BSA, 1 mM AMPPNP or ADP, 50 nM DNA …; recombinant protein; label: 5'-fluorescein.
The target of series [3] is T1, Sth1(301-1097) (UniProt P32597).
T1 sequence (looked up): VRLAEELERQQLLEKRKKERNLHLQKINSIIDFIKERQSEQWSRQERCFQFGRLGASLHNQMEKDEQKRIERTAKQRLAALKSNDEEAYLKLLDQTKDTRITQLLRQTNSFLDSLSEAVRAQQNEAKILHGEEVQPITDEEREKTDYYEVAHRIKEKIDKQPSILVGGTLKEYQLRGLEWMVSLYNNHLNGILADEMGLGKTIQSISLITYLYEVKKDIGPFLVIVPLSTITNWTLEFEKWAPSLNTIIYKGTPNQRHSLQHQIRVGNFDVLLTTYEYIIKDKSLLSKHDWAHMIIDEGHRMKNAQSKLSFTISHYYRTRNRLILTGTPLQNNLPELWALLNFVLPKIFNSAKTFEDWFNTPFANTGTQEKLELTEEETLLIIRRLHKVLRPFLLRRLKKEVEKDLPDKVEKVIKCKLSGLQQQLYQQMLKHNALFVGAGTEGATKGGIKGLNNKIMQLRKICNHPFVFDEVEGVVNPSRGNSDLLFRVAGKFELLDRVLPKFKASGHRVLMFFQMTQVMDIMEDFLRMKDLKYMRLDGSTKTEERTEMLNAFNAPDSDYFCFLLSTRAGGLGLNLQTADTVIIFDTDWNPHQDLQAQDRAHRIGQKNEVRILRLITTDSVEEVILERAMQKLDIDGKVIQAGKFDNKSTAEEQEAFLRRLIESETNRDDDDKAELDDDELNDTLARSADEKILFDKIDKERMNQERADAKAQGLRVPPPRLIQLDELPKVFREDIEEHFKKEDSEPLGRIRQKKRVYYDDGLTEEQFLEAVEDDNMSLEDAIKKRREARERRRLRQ
Briefly: fluorescence anisotropy. The settings on record: 1 mM ADP, weaker than with AMPPNP, Kd only in figure; Anisotropy: 20 mM HEPES pH 7.5, 50 mM NaCl, 2.5 mM MgCl2, 5% glycerol, 1 mM DTT, 0.1 mg/mL BSA, 1 mM AMPPNP or ADP, 50 nM DNA, 20 C; recombinant protein; residues 301-1097; label: 5'-fluorescein.

Series [4] has as its target T2, Sth1(365-1097) (UniProt P32597).
T2 sequence (looked up): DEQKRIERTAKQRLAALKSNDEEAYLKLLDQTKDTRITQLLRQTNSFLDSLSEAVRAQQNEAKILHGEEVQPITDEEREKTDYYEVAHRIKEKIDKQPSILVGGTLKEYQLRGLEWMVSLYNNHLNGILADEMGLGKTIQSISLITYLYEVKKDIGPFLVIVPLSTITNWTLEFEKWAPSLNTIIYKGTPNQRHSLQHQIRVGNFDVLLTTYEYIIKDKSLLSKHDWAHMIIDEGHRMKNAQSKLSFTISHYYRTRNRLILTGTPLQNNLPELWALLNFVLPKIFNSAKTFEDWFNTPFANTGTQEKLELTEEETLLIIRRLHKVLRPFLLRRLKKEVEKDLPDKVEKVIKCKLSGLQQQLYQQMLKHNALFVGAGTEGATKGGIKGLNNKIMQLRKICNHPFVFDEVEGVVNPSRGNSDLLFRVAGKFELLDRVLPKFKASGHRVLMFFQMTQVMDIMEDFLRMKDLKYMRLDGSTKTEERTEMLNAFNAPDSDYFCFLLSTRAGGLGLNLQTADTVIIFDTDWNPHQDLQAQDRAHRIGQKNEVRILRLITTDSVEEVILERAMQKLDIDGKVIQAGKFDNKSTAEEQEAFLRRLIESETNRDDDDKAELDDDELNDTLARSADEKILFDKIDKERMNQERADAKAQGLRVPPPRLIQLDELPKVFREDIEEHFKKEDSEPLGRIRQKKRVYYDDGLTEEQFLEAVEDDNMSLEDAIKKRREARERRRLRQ
Briefly: fluorescence anisotropy. The settings on record: Anisotropy: 20 mM HEPES pH 7.5, 50 mM NaCl, 2.5 mM MgCl2, 5% glycerol, 1 mM DTT, 0.1 mg/mL BSA, 1 mM AMPPNP or ADP, 50 nM DNA, 20 C, recombinant protein, residues 365-1097, label: 5'-fluorescein.

The target of series [5] is T3, Sth1(388-1097) (UniProt P32597).
T3 sequence (looked up): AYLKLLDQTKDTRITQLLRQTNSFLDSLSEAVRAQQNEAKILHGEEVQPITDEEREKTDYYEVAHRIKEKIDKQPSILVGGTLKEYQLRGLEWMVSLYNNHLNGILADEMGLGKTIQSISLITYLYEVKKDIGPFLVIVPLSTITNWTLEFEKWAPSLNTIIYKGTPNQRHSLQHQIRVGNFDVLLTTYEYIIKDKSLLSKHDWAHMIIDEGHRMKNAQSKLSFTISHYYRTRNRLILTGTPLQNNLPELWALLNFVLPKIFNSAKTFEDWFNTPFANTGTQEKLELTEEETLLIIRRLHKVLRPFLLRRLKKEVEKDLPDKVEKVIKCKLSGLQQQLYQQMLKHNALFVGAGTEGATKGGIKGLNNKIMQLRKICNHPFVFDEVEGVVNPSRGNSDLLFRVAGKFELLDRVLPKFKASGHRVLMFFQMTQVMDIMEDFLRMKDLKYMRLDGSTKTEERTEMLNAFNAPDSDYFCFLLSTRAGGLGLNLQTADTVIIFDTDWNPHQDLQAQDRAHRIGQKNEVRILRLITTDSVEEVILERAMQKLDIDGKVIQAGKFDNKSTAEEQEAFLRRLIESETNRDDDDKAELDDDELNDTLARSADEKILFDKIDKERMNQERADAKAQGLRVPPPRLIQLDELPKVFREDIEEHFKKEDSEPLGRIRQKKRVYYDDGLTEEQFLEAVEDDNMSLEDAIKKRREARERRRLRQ
The experiment in a line: fluorescence anisotropy. The settings on record: Anisotropy: 20 mM HEPES pH 7.5, 50 mM NaCl, 2.5 mM MgCl2, 5% glycerol, 1 mM DTT, 0.1 mg/mL BSA, 1 mM AMPPNP or ADP, 50 nM DNA, 20 C, recombinant protein, residues 388-1097, label: 5'-fluorescein.

In series [6] the test system is Rtt102 + Arp7 + Arp9 + Sth1(301-1097). The experiment in a line: EMSA. The note with it: single slow band, EMSA: 20 mM HEPES pH 7.5, 50 mM NaCl, 1 mM MgCl2, 5% glycerol, 1 mM DTT, 0.1 mg/mL BSA, 1 mM ADP or AMPPNP, room temperature, recombinant protein. A general note: A gel shift assay detects complexes by their altered migration in electrophoresis.
Where [7] appears, read: 1 mM ADP, weaker than with AMPPNP, Kd only in figure.

With “TCCATGTCCATGGATACGTGG / TCCACGTATCCATGGACATGGA [fluorescein DNA duplex]”, the binding result in series [1], in series [2], in series [3], in series [4] (setting [7]) and in series [5] (setting [7]) was “binds more weakly” throughout. In addition, the Kd in series [4] (1 mM AMPPNP) came to 830 nM; in series [5] (1 mM AMPPNP), 1320 nM.
As to “TCCATGTCCATGGATACGTGG / TCCACGTATCCATGGACATGGA [unlabeled DNA duplex]”, the binding result in series [6] (1 mM ADP) and in series [6] (1 mM AMPPNP) was “binds more weakly” throughout.
